Source: patent US12496315B2, “Compositions for drug delivery and methods of use thereof” (Stellular Bio, Inc., priority 2018, dated 2025)
Where a name gives a salt, the structure may show the parent alone.

What was measured:
[1] = tested on: human washed platelets; experiment: Doxorubicin loading of washed platelets by passive diffusion; type: cell-based
[2] = tested on: human iPSC-derived platelets; experiment: Passive loading of Ipilimumab in human iPSC-derived platelets; type: cell-based
[3] = tested on: CD34+ derived platelets; experiment: Ipilimumab-Cy5.5 loading in CD34+ derived platelets; type: cell-based, human
[4] = tested on: human iPSC-derived platelets; experiment: Covalent conjugation of Ipilimumab to human iPSC-derived platelets; type: cell-based; details: CD61 and PF4 staining
[5] = tested on: Human donor platelets; experiment: Antibody uptake by human donor platelets (flow cytometry, confocal); type: cell-based
[6] = tested on: mature megakaryocytes; experiment: Passive loading of Atezolizumab in iPSC-derived megakaryocytes; type: cell-based, human

Molecule: COc1cccc2c1C(=O)c1c(O)c3c(c(O)c1C2=O)C[C@@](O)(C(=O)CO)C[C@@H]3O[C@H]1C[C@H](N)[C@H](O)[C@H](C)O1 [doxorubicin, Doxorubicin hydrochloride]
- retention of drug cargo after multiple wash steps ([1]; 10 μM): still be retained
- incubation time sufficient to see detectable doxorubicin ([1]; 10 μM, 1e7 platelets in 1 ml, ambient temperature, dialysis cassette): 30 min
- doxorubicin signal at the longest incubation ([1]; after 1440 minutes): signal retained

Molecule: Ipilimumab: anti-CTLA4 antibody drug, commercially available (Selleckchem #A2001)
- localization by immunofluorescence ([2]; 100 μg/ml, not conjugated to Cy5.5, CD61 and PF4 staining): on the cell surface and within select alpha granules
- Ipilimumab encapsulation, flow cytometry histogram ([2]; 1, 10, 30, and 60 μg per 1e6 platelets in 100 microliter, 37° C. for 1 hour): dose-dependent increase
- drug signal localization ([3]; PF4 and CD61 staining): punctate within the cell
- input ratio sufficient to see a maximal signal by flow cytometry ([3]; pg of Ipilimumab per platelet in the reaction vessel): 100-300 pg/plt
- maximal signal by flow cytometry ([3]; varying concentrations up to 600 μg/ml, 1 hour at 37 degrees Celsius): without a maximal signal established
- localization by immunofluorescence [4]: conjugated mostly on the cell surface

Molecule: atezolizumab: anti-PD-L1 antibody, FDA approved antibody drug
- localization by confocal microscopy ([5]; AlexaFluor 488 anti-human secondary IgG, CD61-APC): sub-cellular localization within the platelets
- uptake by platelets ([5]; labeled antibody): up to 200 μg
- plateau or maximum dose of uptake ([5]; up to 200 μg): did not exhibit a plateau or maximum dose of uptake
- uptake by megakaryocytes and their static generated platelets ([6]; Dylight 488-labeled, 30 minutes): capable of uptake of atezolizumab
- localization ([6]; PF4 stain): colocalize with the alpha granule stain PF4
